Measurements as given in the supplement of paper PMC10849652.
The list shows a part of the results.

Amino acid sequences for entries named in this document (tags omitted). A change or cut given only in a name is not applied to a line headed by its entry.
UniProt Q8WYA6: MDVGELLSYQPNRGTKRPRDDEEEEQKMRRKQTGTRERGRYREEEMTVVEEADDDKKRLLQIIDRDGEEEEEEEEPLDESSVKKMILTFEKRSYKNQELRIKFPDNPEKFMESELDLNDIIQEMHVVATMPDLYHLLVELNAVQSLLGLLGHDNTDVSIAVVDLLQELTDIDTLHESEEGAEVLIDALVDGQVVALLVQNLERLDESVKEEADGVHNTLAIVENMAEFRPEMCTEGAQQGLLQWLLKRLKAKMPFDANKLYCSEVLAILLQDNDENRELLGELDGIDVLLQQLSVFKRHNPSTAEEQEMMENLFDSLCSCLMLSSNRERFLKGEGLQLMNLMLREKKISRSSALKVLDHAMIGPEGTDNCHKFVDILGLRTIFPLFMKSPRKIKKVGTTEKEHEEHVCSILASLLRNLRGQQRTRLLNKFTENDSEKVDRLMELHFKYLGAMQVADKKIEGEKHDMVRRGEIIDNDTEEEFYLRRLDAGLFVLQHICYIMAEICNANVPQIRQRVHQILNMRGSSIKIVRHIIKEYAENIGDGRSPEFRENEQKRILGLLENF
UniProt P50461: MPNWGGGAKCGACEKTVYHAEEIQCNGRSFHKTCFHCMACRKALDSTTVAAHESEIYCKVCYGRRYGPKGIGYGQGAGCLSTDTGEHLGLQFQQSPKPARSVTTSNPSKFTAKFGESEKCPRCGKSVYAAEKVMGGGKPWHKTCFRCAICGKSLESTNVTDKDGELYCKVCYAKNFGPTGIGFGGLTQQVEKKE
UniProt Q2TBE0: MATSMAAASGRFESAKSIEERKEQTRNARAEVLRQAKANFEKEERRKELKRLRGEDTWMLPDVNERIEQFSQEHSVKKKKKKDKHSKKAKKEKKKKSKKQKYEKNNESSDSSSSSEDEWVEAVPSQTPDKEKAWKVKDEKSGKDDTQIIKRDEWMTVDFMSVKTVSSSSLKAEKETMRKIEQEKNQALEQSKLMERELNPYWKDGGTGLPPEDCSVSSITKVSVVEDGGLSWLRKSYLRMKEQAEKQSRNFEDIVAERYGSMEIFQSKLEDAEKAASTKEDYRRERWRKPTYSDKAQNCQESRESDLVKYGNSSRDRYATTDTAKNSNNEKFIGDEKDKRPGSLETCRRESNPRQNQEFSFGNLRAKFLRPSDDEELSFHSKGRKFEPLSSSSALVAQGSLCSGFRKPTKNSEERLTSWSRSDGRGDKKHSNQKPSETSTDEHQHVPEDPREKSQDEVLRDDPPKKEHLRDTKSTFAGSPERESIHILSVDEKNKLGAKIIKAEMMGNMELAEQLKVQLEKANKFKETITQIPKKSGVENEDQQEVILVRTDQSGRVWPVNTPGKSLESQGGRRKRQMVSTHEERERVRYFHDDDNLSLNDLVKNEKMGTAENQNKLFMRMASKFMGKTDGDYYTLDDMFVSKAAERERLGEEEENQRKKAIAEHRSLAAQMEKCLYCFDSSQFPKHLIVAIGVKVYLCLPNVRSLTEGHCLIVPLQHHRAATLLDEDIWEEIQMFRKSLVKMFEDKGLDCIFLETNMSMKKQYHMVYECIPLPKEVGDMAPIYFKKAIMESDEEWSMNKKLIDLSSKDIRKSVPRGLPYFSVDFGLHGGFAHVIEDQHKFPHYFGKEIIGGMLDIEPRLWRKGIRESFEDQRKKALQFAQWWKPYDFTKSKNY
UniProt O60716: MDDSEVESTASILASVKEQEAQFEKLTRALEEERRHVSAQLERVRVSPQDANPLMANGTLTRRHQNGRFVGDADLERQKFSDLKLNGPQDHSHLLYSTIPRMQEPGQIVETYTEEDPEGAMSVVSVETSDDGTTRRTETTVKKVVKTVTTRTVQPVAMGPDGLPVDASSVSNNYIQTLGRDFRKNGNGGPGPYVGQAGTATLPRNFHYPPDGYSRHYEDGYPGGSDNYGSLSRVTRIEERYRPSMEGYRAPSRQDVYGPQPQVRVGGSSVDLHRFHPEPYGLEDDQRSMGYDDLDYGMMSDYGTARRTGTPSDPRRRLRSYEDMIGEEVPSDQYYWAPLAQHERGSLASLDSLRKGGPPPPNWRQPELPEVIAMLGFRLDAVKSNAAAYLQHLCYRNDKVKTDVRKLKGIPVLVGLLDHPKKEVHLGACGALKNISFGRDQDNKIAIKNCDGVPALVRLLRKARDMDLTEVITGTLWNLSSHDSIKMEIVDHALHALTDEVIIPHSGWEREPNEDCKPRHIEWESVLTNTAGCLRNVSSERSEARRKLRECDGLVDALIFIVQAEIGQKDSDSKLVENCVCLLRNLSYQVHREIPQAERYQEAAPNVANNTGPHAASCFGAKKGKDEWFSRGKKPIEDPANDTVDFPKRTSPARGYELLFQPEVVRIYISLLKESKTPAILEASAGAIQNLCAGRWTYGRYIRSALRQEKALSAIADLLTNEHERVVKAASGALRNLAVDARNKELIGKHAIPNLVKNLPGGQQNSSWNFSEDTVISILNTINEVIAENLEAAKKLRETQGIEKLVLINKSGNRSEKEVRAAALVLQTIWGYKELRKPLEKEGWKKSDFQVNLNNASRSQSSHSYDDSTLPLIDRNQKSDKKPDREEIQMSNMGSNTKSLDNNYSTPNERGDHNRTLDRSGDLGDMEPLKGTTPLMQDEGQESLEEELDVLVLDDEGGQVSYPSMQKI
UniProt P39880: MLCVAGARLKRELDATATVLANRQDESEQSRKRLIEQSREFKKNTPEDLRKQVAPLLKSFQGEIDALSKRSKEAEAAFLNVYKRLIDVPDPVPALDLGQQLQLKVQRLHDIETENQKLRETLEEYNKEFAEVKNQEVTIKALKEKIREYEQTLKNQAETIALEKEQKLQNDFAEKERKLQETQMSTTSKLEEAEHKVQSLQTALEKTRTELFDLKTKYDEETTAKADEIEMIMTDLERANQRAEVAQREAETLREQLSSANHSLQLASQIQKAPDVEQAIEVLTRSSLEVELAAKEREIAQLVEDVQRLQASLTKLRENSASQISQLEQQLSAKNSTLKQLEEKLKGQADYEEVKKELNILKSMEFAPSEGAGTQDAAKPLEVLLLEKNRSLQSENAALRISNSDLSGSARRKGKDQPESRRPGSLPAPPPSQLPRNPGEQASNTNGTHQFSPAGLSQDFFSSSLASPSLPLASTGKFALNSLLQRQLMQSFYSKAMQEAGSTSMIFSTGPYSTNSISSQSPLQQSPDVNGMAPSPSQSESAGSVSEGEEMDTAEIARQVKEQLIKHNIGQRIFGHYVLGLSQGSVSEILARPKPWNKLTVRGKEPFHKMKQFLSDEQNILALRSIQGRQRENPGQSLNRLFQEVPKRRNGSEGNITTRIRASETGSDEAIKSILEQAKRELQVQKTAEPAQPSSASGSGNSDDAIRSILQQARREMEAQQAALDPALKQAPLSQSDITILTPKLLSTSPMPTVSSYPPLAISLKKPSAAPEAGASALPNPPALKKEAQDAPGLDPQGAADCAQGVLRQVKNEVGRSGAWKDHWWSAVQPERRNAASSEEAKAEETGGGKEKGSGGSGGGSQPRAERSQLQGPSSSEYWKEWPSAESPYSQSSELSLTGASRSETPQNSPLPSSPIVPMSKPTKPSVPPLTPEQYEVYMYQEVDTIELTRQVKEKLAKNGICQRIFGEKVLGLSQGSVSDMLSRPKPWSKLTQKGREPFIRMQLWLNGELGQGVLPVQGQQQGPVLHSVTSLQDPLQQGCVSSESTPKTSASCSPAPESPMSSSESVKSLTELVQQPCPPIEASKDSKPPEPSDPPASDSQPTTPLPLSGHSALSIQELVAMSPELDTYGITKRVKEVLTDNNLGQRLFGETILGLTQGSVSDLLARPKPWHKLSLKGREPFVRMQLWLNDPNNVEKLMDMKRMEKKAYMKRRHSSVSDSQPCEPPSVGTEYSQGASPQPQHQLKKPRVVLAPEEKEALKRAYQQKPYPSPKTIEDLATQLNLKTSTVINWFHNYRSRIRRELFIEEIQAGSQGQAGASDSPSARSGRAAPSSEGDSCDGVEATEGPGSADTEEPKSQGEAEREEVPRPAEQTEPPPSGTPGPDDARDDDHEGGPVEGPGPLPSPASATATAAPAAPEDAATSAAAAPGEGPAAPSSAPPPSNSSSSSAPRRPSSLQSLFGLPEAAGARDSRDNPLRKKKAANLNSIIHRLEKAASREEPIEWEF
UniProt Q8NA75: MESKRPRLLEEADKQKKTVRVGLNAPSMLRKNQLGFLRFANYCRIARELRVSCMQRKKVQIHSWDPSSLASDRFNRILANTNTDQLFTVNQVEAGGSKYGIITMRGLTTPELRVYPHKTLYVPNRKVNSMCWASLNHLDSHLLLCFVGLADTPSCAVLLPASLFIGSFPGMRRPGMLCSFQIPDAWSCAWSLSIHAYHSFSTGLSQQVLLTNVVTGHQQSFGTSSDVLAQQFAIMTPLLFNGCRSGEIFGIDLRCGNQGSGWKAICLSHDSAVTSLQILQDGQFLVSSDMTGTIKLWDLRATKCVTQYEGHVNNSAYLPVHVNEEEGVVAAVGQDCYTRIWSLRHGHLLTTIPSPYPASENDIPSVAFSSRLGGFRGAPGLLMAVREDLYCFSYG
UniProt Q9H773: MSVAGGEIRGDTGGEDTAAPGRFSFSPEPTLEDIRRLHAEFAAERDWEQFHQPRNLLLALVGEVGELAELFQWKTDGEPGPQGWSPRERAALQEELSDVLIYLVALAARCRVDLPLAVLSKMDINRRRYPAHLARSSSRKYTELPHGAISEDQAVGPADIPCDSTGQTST
UniProt O60888: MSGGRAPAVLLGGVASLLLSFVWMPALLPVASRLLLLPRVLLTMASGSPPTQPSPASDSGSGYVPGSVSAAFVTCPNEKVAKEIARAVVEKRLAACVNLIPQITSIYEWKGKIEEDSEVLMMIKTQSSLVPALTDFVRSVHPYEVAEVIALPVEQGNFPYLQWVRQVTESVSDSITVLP
UniProt Q9BTE1, whole entry, looked up: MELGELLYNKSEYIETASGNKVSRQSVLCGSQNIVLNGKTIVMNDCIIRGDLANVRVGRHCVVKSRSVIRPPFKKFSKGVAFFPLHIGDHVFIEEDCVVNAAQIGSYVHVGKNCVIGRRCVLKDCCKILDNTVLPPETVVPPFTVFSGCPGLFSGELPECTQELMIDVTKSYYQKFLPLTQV
UniProt Q8NBI2: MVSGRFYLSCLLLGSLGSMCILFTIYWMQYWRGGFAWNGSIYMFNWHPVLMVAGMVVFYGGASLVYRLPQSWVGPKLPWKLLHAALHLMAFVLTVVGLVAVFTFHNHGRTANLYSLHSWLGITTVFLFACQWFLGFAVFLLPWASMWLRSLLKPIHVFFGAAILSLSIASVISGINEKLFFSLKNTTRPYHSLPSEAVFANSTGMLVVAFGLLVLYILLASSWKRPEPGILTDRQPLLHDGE
UniProt O95196: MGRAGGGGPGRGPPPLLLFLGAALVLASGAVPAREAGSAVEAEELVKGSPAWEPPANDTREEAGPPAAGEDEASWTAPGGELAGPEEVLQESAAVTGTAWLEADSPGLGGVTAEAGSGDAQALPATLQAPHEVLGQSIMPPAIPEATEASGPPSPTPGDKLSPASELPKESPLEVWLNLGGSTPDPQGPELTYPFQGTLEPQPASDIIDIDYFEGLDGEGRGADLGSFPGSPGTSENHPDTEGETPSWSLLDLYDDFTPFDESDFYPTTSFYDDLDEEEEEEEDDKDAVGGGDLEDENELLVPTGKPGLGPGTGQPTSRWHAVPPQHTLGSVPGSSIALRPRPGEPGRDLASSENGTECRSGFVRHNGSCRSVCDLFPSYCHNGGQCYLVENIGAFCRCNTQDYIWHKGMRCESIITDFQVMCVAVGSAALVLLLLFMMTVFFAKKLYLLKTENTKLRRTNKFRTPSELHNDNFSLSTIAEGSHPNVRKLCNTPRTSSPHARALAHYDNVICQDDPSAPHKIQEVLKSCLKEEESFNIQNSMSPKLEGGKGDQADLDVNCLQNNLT
UniProt Q9NXF7, whole entry, looked up: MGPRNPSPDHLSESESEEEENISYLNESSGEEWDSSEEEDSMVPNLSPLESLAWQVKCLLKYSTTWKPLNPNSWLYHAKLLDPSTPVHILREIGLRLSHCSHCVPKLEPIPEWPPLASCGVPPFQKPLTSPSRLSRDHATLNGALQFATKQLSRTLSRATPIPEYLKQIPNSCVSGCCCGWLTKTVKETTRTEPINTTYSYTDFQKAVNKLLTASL
UniProt P49447: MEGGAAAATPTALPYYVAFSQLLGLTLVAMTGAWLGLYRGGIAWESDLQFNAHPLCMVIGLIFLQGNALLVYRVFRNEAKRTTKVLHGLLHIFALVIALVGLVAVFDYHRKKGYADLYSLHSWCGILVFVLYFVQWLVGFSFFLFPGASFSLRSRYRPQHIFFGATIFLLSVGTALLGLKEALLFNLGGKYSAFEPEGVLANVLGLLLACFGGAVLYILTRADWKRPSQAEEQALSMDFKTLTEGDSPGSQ
UniProt Q16527: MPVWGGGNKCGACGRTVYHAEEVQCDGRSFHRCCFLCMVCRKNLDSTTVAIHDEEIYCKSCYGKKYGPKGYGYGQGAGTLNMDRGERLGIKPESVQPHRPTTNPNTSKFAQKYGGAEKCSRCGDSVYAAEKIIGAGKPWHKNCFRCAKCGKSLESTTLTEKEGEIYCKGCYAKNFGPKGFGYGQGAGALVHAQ

How the values were obtained:
Experiment in all cases: log2 fold change, soluble protein after heating vs DMSO (PISA); higher = thermal stabilisation; K562 cells, 10 uM, 30 min; active = over 0.2 and 3.5 SD of the protein, either way, in both replicates (recomputed)
[1] = compound: CC[C@@H]1C(=O)N(C)c2cnc(Nc3ccc(C(=O)NC4CCN(C)CC4)cc3OC)nc2N1C1CCCC1
In short: (§1)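 Quantification of soluble protein used TMTpro 16plex LC-MS/MS, with channel sums equalised. Samples were the supernatant after 21,000xg for 90 min of pooled aliquots from K562 cells (2×10^6 cells/mL) treated with 10 μM compound for 30 min, heated for 3 min over 48°C-58°C, and extracted in PBS with 0.5% NP-40 at 4°C. Values, from duplicates, describe thermal stability against control samples on a log2 fold-change scale.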

volasertib = compound: CC[C@@H]1C(=O)N(C)c2cnc(Nc3ccc(C(=O)N[C@H]4CC[C@H](N5CCN(CC6CC6)CC5)CC4)cc3OC)nc2N1C(C)C [volasertib]
In short: as §1

[2] = compound: CN(C)CC(=O)Nc1ccc2[nH]c(=O)c3ccccc3c2c1
In short: as §1

[3] = compound: CC[C@H](C)N1C=C(C2=C(C=C(C=C21)C3=CN=C(C=C3)N4CCNCC4)C(=O)NCC5=C(C=C(NC5=O)C)C)C
In short: as §1

[4] = compound: CCn1c(C(=O)N(C2CC2)C2CC2)cc2c3c(ncn3C)c(Nc3cc(C)n(C)n3)nc21
In short: as §1

[5] = compound: CCn1cc(-c2ccnc3[nH]c(-c4cccc(CN(C)C)c4)cc23)c(-c2ccc(NC(=O)N(C)C)cc2)n1
In short: as §1

rosiglitazone = compound: CN(CCOC1=CC=C(C=C1)C[C@H]2C(=O)NC(=O)S2)C3=CC=CC=N3 (racemic) [rosiglitazone]
In short: as §1

[6] = compound: CN1CCC(CNc2ccc3ncc(-c4cccc(OC(F)(F)F)c4)n3n2)CC1
In short: as §1

[7] = compound: CN1C2=C(C3=C1C(=O)N(N=C3)CC4=CC(=CC=C4)N)SC(=C2)S(=O)C
In short: as §1

epoxomicin = compound: CC[C@H](C)[C@@H](C(=O)N[C@@H]([C@@H](C)O)C(=O)N[C@@H](CC(C)C)C(=O)[C@]1(CO1)C)NC(=O)[C@H]([C@@H](C)CC)N(C)C(=O)C [epoxomicin]
In short: as §1

Row | Target | log2 fold change [1] | log2 fold change (volasertib) | log2 fold change [2] | log2 fold change [3] | log2 fold change [4] | log2 fold change [5] | log2 fold change (rosiglitazone) | log2 fold change [6] | log2 fold change [7] | log2 fold change (epoxomicin)
1 | CTNNBL1 (UniProt Q8WYA6) | inactive: -0.362 | active: -1.24 | inactive: 0.012 | – | – | – | – | – | – | –
2 | CSRP3 (UniProt P50461) | inactive: 0.085 | inactive: 0.06 | inactive: -0.072 | inactive: -0.062 | inactive: -0.003 | inactive: 0.132 | inactive: 0.055 | inactive: -0.03 | – | –
3 | CWF19L2 (UniProt Q2TBE0) | inactive: -0.051 | inactive: -0.107 | – | – | – | inactive: 0.094 | – | inactive: 0.21 | inactive: 0.231 | –
4 | CTNND1 (UniProt O60716) | inactive: 0.044 | inactive: 0.066 | inactive: 0.009 | – | inactive: -0.044 | inactive: 0.176 | inactive: -0.059 | inactive: 0.069 | inactive: 0.227 | inactive: -0.269
5 | DBT (UniProt P11182) | inactive: 0.068 | inactive: 0.009 | inactive: -0.14 | inactive: -0.01 | – | inactive: -0.001 | – | inactive: 0.045 | inactive: 0.015 | inactive: -0.022
6 | CUX1 isoform 3 (UniProt P39880) | inactive: 0.008 | inactive: -0.153 | inactive: -0.019 | inactive: 0.036 | – | inactive: -0.008 | – | inactive: -0.123 | inactive: 0.004 | inactive: 0.027
7 | CST6 (UniProt Q15828) | inactive: 0.729 | – | – | inactive: 0.411 | – | – | – | – | – | inactive: 0.533
8 | DAXX (UniProt Q9UER7) | inactive: 0.018 | inactive: -0.006 | inactive: -0.077 | inactive: 0.204 | – | inactive: -0.102 | – | inactive: 0.027 | inactive: -0.093 | –
9 | CYP24A1 (UniProt Q07973) | inactive: 0.252 | inactive: 0.379 | inactive: -0.175 | inactive: -0.209 | – | inactive: 0.065 | – | inactive: 0.198 | inactive: 0.288 | –
10 | DCAF4L2 (UniProt Q8NA75) | inactive: 0.233 | inactive: -0.001 | inactive: 0.007 | inactive: -0.129 | inactive: 0.017 | inactive: -0.018 | inactive: -0.008 | inactive: 0.008 | inactive: 0.03 | –
11 | DCTPP1 (UniProt Q9H773) | inactive: 0.007 | inactive: -0.016 | inactive: -0.012 | inactive: -0.059 | – | inactive: -0.032 | – | inactive: 0.201 | inactive: -0.048 | inactive: 0.062
12 | CTSA (UniProt P10619) | active: -1.24 | active: -1.57 | inactive: 0.011 | inactive: -0.037 | – | inactive: 0.018 | – | active: -1.44 | inactive: -0.007 | inactive: -0.003
13 | CUTA isoform 2 (UniProt O60888) | inactive: 0.063 | inactive: -0.057 | inactive: 0.175 | inactive: -0.033 | – | inactive: -0.109 | – | inactive: -0.027 | inactive: 0.164 | inactive: 0.125
14 | DCTN5 (UniProt Q9BTE1) | inactive: 0.02 | inactive: -0.004 | inactive: -0.023 | inactive: 0.008 | inactive: -0.048 | inactive: -0.082 | inactive: 0.062 | inactive: 0.057 | inactive: 0.011 | –
15 | CYSTM1 (UniProt Q9H1C7) | inactive: -0.128 | inactive: 0.434 | inactive: 0.01 | inactive: 0.015 | inactive: 0.118 | – | inactive: 0.012 | – | inactive: 0.17 | –
16 | CTSH (UniProt P09668) | inactive: -0.087 | inactive: -0.06 | inactive: 0.001 | inactive: 0.008 | – | inactive: 0.057 | – | active: -0.295 | inactive: -0.008 | inactive: -0.022
17 | CTR9 (UniProt Q6PD62) | inactive: -0.162 | inactive: -1.12 | – | – | inactive: -0.019 | inactive: -0.05 | – | inactive: -0.003 | inactive: 0.164 | inactive: 0.162

2 entries drawn at random from the list so far:
Row | Target | log2 fold change [1] | log2 fold change (volasertib) | log2 fold change [2] | log2 fold change [3] | log2 fold change [4] | log2 fold change [5] | log2 fold change (rosiglitazone) | log2 fold change [6] | log2 fold change [7] | log2 fold change (epoxomicin)
15 | CYSTM1 (UniProt Q9H1C7) | inactive: -0.128 | inactive: 0.434 | inactive: 0.01 | inactive: 0.015 | inactive: 0.118 | – | inactive: 0.012 | – | inactive: 0.17 | –
13 | CUTA isoform 2 (UniProt O60888) | inactive: 0.063 | inactive: -0.057 | inactive: 0.175 | inactive: -0.033 | – | inactive: -0.109 | – | inactive: -0.027 | inactive: 0.164 | inactive: 0.125

(continued)

Row | Target | log2 fold change [1] | log2 fold change (volasertib) | log2 fold change [2] | log2 fold change [3] | log2 fold change [4] | log2 fold change [5] | log2 fold change (rosiglitazone) | log2 fold change [6] | log2 fold change [7] | log2 fold change (epoxomicin)
18 | CTBS (UniProt Q01459) | active: -0.494 | active: -0.376 | inactive: 0.013 | inactive: -0.074 | – | inactive: 0.069 | – | active: -0.44 | inactive: 0.045 | inactive: 0.033
19 | CYB561A3 isoform 2 (UniProt Q8NBI2) | inactive: -0.058 | inactive: 0.103 | – | inactive: -0.089 | – | inactive: -0.241 | – | inactive: 0.032 | inactive: -0.021 | –
20 | CYTH1 (UniProt Q15438) | inactive: -0.043 | inactive: -0.056 | inactive: 0.077 | – | – | – | – | – | inactive: -0.019 | inactive: 0.279
21 | CSPG5 (UniProt O95196) | inactive: 0.049 | inactive: 0.172 | – | – | inactive: -0.021 | – | – | – | – | inactive: -0.234
22 | CYP51A1 (UniProt Q16850) | inactive: 0.019 | inactive: 0.132 | inactive: 0.015 | inactive: 0.052 | – | inactive: 0.015 | – | active: -0.331 | inactive: 0.072 | inactive: -0.061
23 | DCAF16 (UniProt Q9NXF7) | inactive: -0.164 | active: -0.532 | inactive: 0.073 | inactive: 0.06 | – | inactive: -0.205 | – | inactive: 0.03 | inactive: -0.052 | inactive: 0.032
24 | DBNL isoform 3 (UniProt Q9UJU6) | inactive: -0.143 | active: -0.367 | inactive: 0.011 | inactive: 0.031 | – | inactive: 0.007 | – | inactive: -0.109 | inactive: -0.075 | inactive: 0.012
25 | DBR1 (UniProt Q9UK59) | inactive: 0.037 | inactive: 0 | inactive: -0.019 | inactive: 0.008 | – | inactive: 0.015 | – | inactive: 0.015 | inactive: -0.034 | inactive: -0.018
26 | CYFIP1 (UniProt Q7L576) | inactive: -0.011 | active: -0.233 | inactive: 0.024 | inactive: 0.046 | – | inactive: 0.011 | – | inactive: -0.034 | inactive: 0.001 | inactive: 0.02
27 | DAB2 (UniProt P98082) | inactive: -0.204 | active: -0.289 | inactive: 0.132 | inactive: 0.042 | – | inactive: 0.022 | – | inactive: -0.111 | inactive: 0.032 | inactive: -0.004
28 | CUX1 isoform 2 (UniProt Q13948) | inactive: -0.055 | inactive: -0.188 | inactive: 0.317 | inactive: 0 | – | inactive: 0.043 | – | inactive: 0.055 | inactive: 0.016 | inactive: -0.002
29 | DCAF13 (UniProt Q9NV06) | inactive: 0.134 | inactive: 0.26 | inactive: -0.166 | inactive: 0.03 | – | inactive: 0.132 | – | inactive: 0.136 | inactive: 0.195 | inactive: -0.24
30 | CYB561 (UniProt P49447) | inactive: 0.157 | inactive: -0.206 | inactive: 0.32 | inactive: 0.129 | inactive: 0.06 | inactive: 0.01 | inactive: 0.071 | inactive: 0.118 | inactive: -0.097 | –
31 | CTU1 (UniProt Q7Z7A3) | inactive: -0.052 | inactive: -0.117 | inactive: 0.065 | inactive: 0.026 | – | inactive: -0.057 | – | active: -0.233 | inactive: -0.098 | inactive: 0.045
32 | DBNDD1 isoform 3 (UniProt Q9H9R9) | – | – | – | – | inactive: -0.137 | – | – | – | – | inactive: 0.03
33 | CSRP2 (UniProt Q16527) | – | – | inactive: -0.045 | – | – | – | – | – | – | –

Look-ups from the entries so far:
Value of DAB2 (UniProt P98082) under log2 fold change [7]: inactive: 0.032
Value of CYFIP1 (UniProt Q7L576) under log2 fold change [2]: inactive: 0.024
